Measurements taken from article PMC9656482, “In Vitro and In Vivo Biological Activity of Ruthenium 1,10-Phenanthroline-5,6-dione Arene Complexes” (International Journal of Molecular Sciences, 2022).

Tested on: A2780 cells
Assay: Complexes internalization by ICP-AES
Format: cell-based, human
Details: A2780, 10 μM, 3 h and 6 h

| SMILES | internalization (percentage of ruthenium inside cells) |
| --- | --- |
| Cc1ccc(C(C)C)cc1.O=C1C(=O)c2cccnc2-c2ncccc21.O=S(=O)([O-])C(F)(F)F.[Cl][Ru+] [JHOR10, [Ru{p-C6H4(Me)(iPr)}{(Dione)Cl][CF3SO3]] | lower internalization rate |
| Cc1ccc(C(C)C)cc1.F[P-](F)(F)(F)(F)F.O=C1C(=O)c2cccnc2-c2ncccc21.[Cl][Ru+] [JHOR11] | higher internalization |
